Results as given in PubChem BioAssay AID808 (Columbia University Molecular Screening Center, 2007).
In all, about 93,000 compounds went through this assay and about 180 (0.19%) were called active. This list was built around the results that the source calls inconclusive (neither active nor inactive); the mix of calls is not that of the screen.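 Rule for the calls: active = activation above the screen mean plus 3 SD, with well images confirming the hit on visual review (cut at about 28% in these data, passing the limit was not always enough); inconclusive = activation above that limit but images do not confirm it; inactive = activation not above that limit.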

Test: enhancers of endothelial VCAM-1 upregulation by TNFa – imaging, HUVEC, TNFa stimulus, immunofluorescence, primary screen (AID 808);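 note: signal is the number of cytoplasmic VCAM-1 stained grains per positive cell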
Conditions: HUVEC TNFa-stimulated VCAM-1 immunofluorescence, high-content imaging; at 2 µM; hits give high values

Row | Compound | activation
1 | Cc1ccc2cccc(OC(=O)N3CCCC3)c2n1 | inconclusive: 52.9% [cytotoxic]
